# Reference: PubChem BioAssay AID2685 (National Center for Advancing Translational Sciences (NCATS), 2010)
# The other results are listed elsewhere or left out. Further columns of the screen follow, without active or inactive calls. Compounds called inactive in the main read-out are mostly missing here. Words in brackets tell the shape of the fitted curve; partial curves, single points and poor fits give uncertain potencies.
# Assay: qHTS Assay for Lipid Storage Modulators in Drosophila S3 Cells;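 for cell number change: cells counted by Cell Tracker Red CMTPX staining in the red channel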
# Conditions: BODIPY lipid droplet fluorescence, 18-24 h; for cell number change: measured here: cell count max response, cells fed with added oleic acid
# How it was run: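 Drosophila S3 cells loaded with oleic acid (400 uM, as added) and compounds at several concentrations; lipid droplets imaged by 488-nm laser-scanning cytometry, 500–530 nm intensity and object ratio to cell channel. Percent activity normalized to 20 uM Triacsin C.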
# [1] = measured here: cell number channel AC50, cells fed with added oleic acid
# [2] = measured here: lipid fluorescence (Fed channel) AC50, cells fed with added oleic acid
Structure (SMILES),cell number change [%],AC50 [1],AC50 [2]
COc1ccc(-c2noc(CCC(=O)NCCCN3CCC(Cc4ccccc4)CC3)n2)cc1,-141,"3.66 µM [falling, partial curve]","0.58 µM [falling, single point]"
Cc1cc(=O)nc2c3ccccc3n(CC(=O)NC3CCCCC3)n12,-15.7,,"2.06 µM [falling, partial curve]"
CSCCC(NS(=O)(=O)c1ccc(Cl)cc1)C(=O)OCC(=O)NC12CC3CC(CC(C3)C1)C2 (configuration not stated),-52.5,"20.6 µM [falling, partial curve, poor fit]",
COc1ccc(OC(=O)C(C)N2C(=O)c3ccccc3C2=O)cc1 (configuration not stated),18.5,,"0.58 µM [rising, single point]"
Oc1ccc(CN2CCCCC2)nc1-c1ccccc1,-1.33,,"6.51 µM [rising, single point]"
Cc1cc(C)nc(NC(=O)c2cc(-c3ccc(C)s3)nc3ccccc23)c1,14.1,"2.31 µM [rising, single point]","2.31 µM [rising, full curve]"
CCCC(=O)NC(Nc1ccc(S(=O)(=O)Nc2cc(C)on2)cc1)(C(=O)OCC)C(F)(F)F (configuration not stated),2.61,,"0.164 µM [rising, full curve, poor fit]"
COC(=O)c1c(C(=O)OC)c(-c2ccc(C(C)(C)C)cc2)n2c1CS(=O)C2 (configuration not stated),,"4.11 µM [rising, single point]","3.26 µM [rising, partial curve]"
N#Cc1ccccc1NC(=O)CSc1nnc(-c2ccccc2O)n1-c1ccccc1,-6.17,,"23.1 µM [rising, partial curve, poor fit]"
Cc1ccc(-c2nn3c(C)nnc3s2)cc1NCc1c(F)cccc1Cl,-33.5,"29.1 µM [falling, single point]","1.46 µM [rising, full curve, poor fit]"
CN1CCN(CCNC(=O)c2cn(Cc3ccccc3F)nn2)CC1,15.4,,
CCOC(=O)C1CCN(C(=O)CSCCSCC(=O)N2CCC(C(=O)OCC)CC2)CC1,39.4,"4.11 µM [rising, partial curve, poor fit]","16.4 µM [rising, partial curve]"
CCCCn1c(N)c(N(CC(C)C)C(=O)c2ccc(-c3ccc([N+](=O)[O-])cc3)o2)c(=O)[nH]c1=O,-9.43,,"16.4 µM [falling, single point]"
CCCc1cc(=O)oc2cc(OCc3ccc(C(=O)O)o3)ccc12,14.5,,"6.51 µM [falling, single point]"
Cc1ccn2cc(C(=O)Nc3ccc4c(c3)OCCO4)nc2c1,-10.7,,"5.8 µM [rising, single point]"
O=C(C[n+]1ccccc1)N/N=C/c1ccco1,-40.7,"0.92 µM [falling, partial curve]",
COc1cc2ccccc2cc1C(=O)NCC(c1cccs1)N(C)C (configuration not stated),4.78,,"2.06 µM [rising, full curve]"
COc1ccc(CCC(=O)OCC(=O)N2CCN(S(=O)(=O)c3ccc(C)cc3C)CC2)cc1,-6.36,,"29.1 µM [rising, single point]"
COc1cc(C(C(=O)NC(C)(C)C)N(C(=O)CNC(=O)c2cccs2)c2ccccc2)cc(OC)c1OC (configuration not stated),-8.03,,"0.731 µM [falling, single point]"

# As entered above:
# Value of `CCCC(=O)NC(Nc1ccc(S(=O)(=O)Nc2cc(C)on2)cc1)(C(=O)OCC)C(F)(F)F` (configuration not stated) under AC50 [2]: 0.164 µM [rising, full curve, poor fit]
# Value of `COc1ccc(CCC(=O)OCC(=O)N2CCN(S(=O)(=O)c3ccc(C)cc3C)CC2)cc1` under AC50 [2]: 29.1 µM [rising, single point]
# Value of `COc1ccc(-c2noc(CCC(=O)NCCCN3CCC(Cc4ccccc4)CC3)n2)cc1` under AC50 [2]: 0.58 µM [falling, single point]

# More compounds follow:

Structure (SMILES),cell number change [%],AC50 [1],AC50 [2]
CCC(CO)N=CC1=C(O)C(C(=O)c2ccccc2)CCC1=O (configuration not stated),59.6,"11.6 µM [rising, partial curve, poor fit]",
Cc1ccc(-c2nc3cccnc3s2)cc1NS(=O)(=O)c1cccs1,17.2,,
CC/C(=N\NC(=O)CSCc1ccccc1Cl)c1ccc2c(c1)OCCO2,31.6,"25.9 µM [rising, single point]","0.326 µM [rising, single point]"
CC(=O)Nc1ccc(OCC(=O)c2cc(C)ccc2C)cc1,13.4,,"4.11 µM [rising, partial curve]"
CN(CC(=O)Nc1ccc(F)cc1)C(=O)COC(=O)/C=C/c1ccc(OC(F)F)cc1,74.5,"29.1 µM [rising, single point]",
CCOc1ccccc1NC(=O)CSc1nnc(-c2cnccn2)n1C,70.4,,"29.1 µM [rising, single point]"
CN(C)CCN(C(=O)c1ccc2ccccc2c1)c1nc2c(F)cc(F)cc2s1,18.7,,"6.51 µM [falling, single point]"
COc1ccc(C(C)=O)cc1COC(=O)c1ccc2ccccc2n1,13.6,,
O=C(NC1CCCC1)c1cccc(NC(=O)c2ccco2)c1,-99.2,"20.6 µM [falling, single point]","16.4 µM [falling, single point]"
CCCCN(Cc1ccco1)S(=O)(=O)c1ccc(-c2ccc(=O)[nH]n2)s1,-42.4,"32.6 µM [falling, partial curve, poor fit]","1.84 µM [falling, partial curve, poor fit]"
CCOC(=O)C1CCN(CC(O)COc2ccc(C(C)(C)CC)cc2)CC1 (configuration not stated),-2.12,,"32.6 µM [falling, single point]"
CCCc1c(C(=O)OCC)sc(N)c1C#N,8.27,,"9.2 µM [rising, partial curve]"
COc1ccc(C2CC(c3cccc(C)c3)n3ncnc3N2)cc1 (configuration not stated),,"0.13 µM [rising, full curve, poor fit]",
O=C(CCC(=O)N1CCN(c2ccc(F)cc2)CC1)c1ccc(Cl)cc1,13,"6.51 µM [rising, single point]",
CCCC(=O)n1nc(-c2ccc(Cl)cc2)nc1SC,,"2.31 µM [falling, single point]","6.51 µM [falling, partial curve, poor fit]"
Cc1cc(OCc2nnc(SC(C)C(=O)O)n2-c2ccccc2)ccc1Cl (configuration not stated),4.69,"0.00517 µM [rising, full curve, poor fit]","0.58 µM [rising, single point]"
COc1ccccc1NS(=O)(=O)c1ccc(C)c(NC(=O)c2c(C)noc2C)c1,-6.74,,"0.00461 µM [rising, full curve, poor fit]"
CC1CC1C(=O)OCC(=O)NCc1ccc(Cl)cc1Cl (configuration not stated),,"6.51 µM [falling, single point]","3.66 µM [falling, full curve]"
COC(=O)C1(CCSC)NC(c2ccccc2F)C2C(=O)N(c3ccc4c(c3)OCCO4)C(=O)C21 (configuration not stated),,,"8.2 µM [rising, partial curve]"

Structure (SMILES),cell number change [%],AC50 [1],AC50 [2]
COc1cccc(CNC(=O)CCC2CCCN(C(=O)c3csc(C(C)C)n3)C2)c1 (configuration not stated),-28.9,,"11.6 µM [falling, partial curve]"
c1ccc(CN2CCN(C(c3ccccc3)c3ccccc3)CC2)cc1,15.8,,
CCOCCCNC(=O)C(NC(=O)c1ccc(=O)[nH]c1)c1ccc(Cl)cc1 (configuration not stated),,,"0.731 µM [rising, full curve, poor fit]"
O=C(CSc1cccc2cccc(Cl)c12)OCC(=O)N1CCN(C(=O)c2ccco2)CC1,1.63,,"0.461 µM [rising, single point]"
Cc1c(C(=O)N2CC(C)OC(C)C2)sc2nc(-c3ccc(F)cc3)cn12 (configuration not stated),2.3,,
O=C(CSc1ccccc1)NCc1ccccc1,6.2,,"29.1 µM [rising, single point]"
O=C(CSc1nc2ccccc2c(=O)n1CCCO)Nc1ccc2c(c1)OCCO2,,"5.17 µM [rising, partial curve]",
COc1ccc(OC)c(C(O)c2nc3ccccc3n2C(C)C)c1 (configuration not stated),-0.202,,"1.3 µM [falling, full curve, poor fit]"
CCOC(=O)c1cc(OC(=O)c2ccccc2OC)n(-c2ccccc2)n1,37.8,,
COC(=O)/C(C#N)=C/c1c(Oc2cc(C)cc(C)c2)nc2c(C)cccn2c1=O,37.4,"6.51 µM [rising, partial curve, poor fit]","25.9 µM [rising, single point]"
O=C1c2oc3ccccc3c(=O)c2C(c2cccnc2)N1CCCN1CCOCC1 (configuration not stated),16.5,,"29.1 µM [rising, single point]"
COCCNC(=O)/C(C#N)=C1\N=C(NC(=O)c2cccs2)c2ccccc21,,,"6.51 µM [rising, partial curve, poor fit]"
CCn1nc(C)cc1-c1nnc(Sc2ncc([N+](=O)[O-])s2)n1C,-64.3,"2.31 µM [falling, full curve]","2.31 µM [falling, full curve]"
O=C(N/N=C/c1ccc(O)c2ncccc12)c1cccc(Br)c1,-0.844,,"0.0326 µM [rising, full curve, poor fit]"
CCn1cc(S(=O)(=O)Nc2cc(F)ccc2C)cn1,-31.4,"0.259 µM [falling, full curve, poor fit]",
Cc1cc2n(n1)C(c1c[nH]c3ccccc13)Nc1ccccc1-2 (configuration not stated),123,"20.6 µM [rising, partial curve]","29.1 µM [rising, partial curve]"
CN1CCN(c2ccc([N+](=O)[O-])cc2C(=O)Nc2ccccc2)CC1,-3.25,,
Cn1c(SCC(=O)NCCc2ccccc2)nnc1-c1ccncc1,4.31,,
COc1ccc(OC)c(/C=C/C(=O)OCC(=O)NCc2ccco2)c1,-37.6,"25.9 µM [falling, partial curve, poor fit]",
